Consider one substance from PMC5808637.

Amino acid sequences for entries named in this document (tags omitted). A change or cut given only in a name is not applied to a line headed by its entry.
UniProt P36405: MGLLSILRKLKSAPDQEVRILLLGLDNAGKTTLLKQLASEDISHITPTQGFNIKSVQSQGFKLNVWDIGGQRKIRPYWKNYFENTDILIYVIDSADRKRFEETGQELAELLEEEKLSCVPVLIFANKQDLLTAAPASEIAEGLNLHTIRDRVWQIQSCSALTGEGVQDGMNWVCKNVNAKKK

Results are given in words; binding and its absence hold for the method and conditions named. Binding seen in cells or lysates may run through a third protein. Some binding calls cover weakened binding; strength is not graded here. Where a sequence is shown, tags or fusion partners need not be part of it.

For experiment [1], the target named is T1, full-length human myc-Kif17 (human) (UniProt Q9P2E2).
T1 sequence: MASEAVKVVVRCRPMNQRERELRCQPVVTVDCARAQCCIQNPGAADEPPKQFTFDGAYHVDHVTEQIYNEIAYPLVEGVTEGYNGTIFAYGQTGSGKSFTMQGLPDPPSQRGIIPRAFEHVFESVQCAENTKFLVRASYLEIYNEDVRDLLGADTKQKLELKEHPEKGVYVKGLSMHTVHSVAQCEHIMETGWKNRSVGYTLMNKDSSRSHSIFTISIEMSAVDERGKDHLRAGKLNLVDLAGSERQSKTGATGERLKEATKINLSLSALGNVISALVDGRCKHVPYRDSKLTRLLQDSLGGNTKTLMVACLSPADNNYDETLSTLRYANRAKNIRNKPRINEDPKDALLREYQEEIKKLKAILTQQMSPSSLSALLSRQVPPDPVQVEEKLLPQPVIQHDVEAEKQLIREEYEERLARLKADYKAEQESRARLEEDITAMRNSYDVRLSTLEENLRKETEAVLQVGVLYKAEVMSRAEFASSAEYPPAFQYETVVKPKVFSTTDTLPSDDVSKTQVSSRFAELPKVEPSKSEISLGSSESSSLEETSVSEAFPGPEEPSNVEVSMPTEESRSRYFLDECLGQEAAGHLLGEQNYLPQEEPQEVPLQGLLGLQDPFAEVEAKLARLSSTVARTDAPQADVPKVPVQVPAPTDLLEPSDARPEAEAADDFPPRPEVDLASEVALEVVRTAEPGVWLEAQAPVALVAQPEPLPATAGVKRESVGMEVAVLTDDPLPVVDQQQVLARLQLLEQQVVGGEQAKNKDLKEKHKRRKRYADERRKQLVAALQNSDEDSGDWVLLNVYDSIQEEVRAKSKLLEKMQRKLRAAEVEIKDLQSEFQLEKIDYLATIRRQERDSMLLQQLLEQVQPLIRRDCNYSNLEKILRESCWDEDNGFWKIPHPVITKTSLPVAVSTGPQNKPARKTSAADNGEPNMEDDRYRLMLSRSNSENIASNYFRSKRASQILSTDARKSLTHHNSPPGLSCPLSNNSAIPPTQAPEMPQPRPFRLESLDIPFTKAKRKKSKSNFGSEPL
Description: co-IP; reciprocal co-IPs testing whether Kif17 forms a complex with both Arl3-GDP and RP2 (competition); Fig. S3.

Experiment [2] concerns the target T1, full-length human myc-Kif17 (human). Description: co-IP; reciprocal co-IPs from lysates of CHO cells co-transfected with two constructs; lysis buffer 25 mM Tris pH 7.5, 150 mM NaCl, 0.25% deoxycholate, 1% NP-40, 1 mM EDTA; Dynabeads Protein G with primary antibodies or GFP-Trap_M beads, 1 h at room temperature; Western blot.

On to “Arl3-T31N-vsv (from UniProt P36405 1-182)”, for which the binding entry in experiment [1] and in experiment [2] was “binds” throughout.
